Measurements reported in PubChem BioAssay AID504764 (Drosophila RNAi Screening Center, 2011)

- Purpose: 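Genome-wide screen for regulators of Notch-driven gene expression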 (primary screen)
- Cell system: Drosophila Kc167 cells
- Reagent: long dsRNA against Drosophila genes
- Time to read-out: about 5 days (4 days dsRNA, then 24 h after transfection)
- Challenge: transfection of constitutively active membrane-tethered Notch lacking the extracellular domain, read 24 h later
- Measurement: 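Light from a Notch-responsive E(spl)m3 luciferase reporter under active Notch, with control-promoter and no-Notch reporter wells to normalise; raw counts from paired wells a and b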
- Reading the numbers: induced reporter light, run 1, well a and induced reporter light, run 1, well b: higher = more light from the Notch target reporter with active Notch; control promoter light, run 1, well a and control promoter light, run 1, well b: higher = more light from the viral control promoter (cell number, transfection, viability); uninduced reporter light, run 1, well a: higher = more light from the Notch target reporter without active Notch
- Hit rule: 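Hit if the duplicate-averaged log2 ratio of induced to control-promoter light gives a plate-wise z beyond ±2, or induced to uninduced beyond ±1.8; weak-control or discordant-duplicate wells dropped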
- Meaning of the calls: active = modifier hit (raised or lowered Notch signal); inactive = not a hit
In all, the deposit lists about 22,000 reagents; this is an unselected part of those with a known target gene and a result. In the full data, 403 (1.9%) got an active call. 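Unnormalised raw counts per well; ratio z-scores behind the hit calls and whether each hit raises or lowers signal are not deposited.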 Entries without a mark were called inactive. The numbers tell different reagents against one gene apart. A plus sign joins genes that one reagent is predicted to hit. Not given: the amount of reagent.

predicted target	reagent no.	induced reporter light, run 1, well a	induced reporter light, run 1, well b	control promoter light, run 1, well a	control promoter light, run 1, well b	uninduced reporter light, run 1, well a
Gr10b (Gustatory receptor 10b)	1	1.28e5	1.11e5	1.38e5	1.59e5	8095
Lip3 (Lipase 3)	1	2.11e5	2.16e5	1.99e5	1.99e5	15985
Gyc89Da (Guanylyl cyclase at 89Da)	1	2.53e5	2.45e5	2.24e5	2.11e5	16745
ttm3 (tiny tim 3)	1	44700	23120	30310	44810	2785
tutl (turtle)	1	1.92e5	1.78e5	1.91e5	1.80e5	12610
tutl (turtle)	2	2.99e5	2.00e5	2.80e5	2.60e5	14755
tutl (turtle)	3	1.72e5	2.02e5	1.70e5	1.99e5	15520
Dnz1 (DNZDHHC/NEW1 zinc finger protein 11)	1	2.11e5	1.86e5	2.01e5	1.91e5	16605
D19B	1	1.65e5	2.03e5	2.25e5	2.22e5	10205
CG7183	1	2.49e5	1.93e5	2.76e5	2.83e5	18335
Pp4-19C (Protein phosphatase 19C)	1	58695	62245	52775	55595	4890
Pp4-19C (Protein phosphatase 19C)	2	56750	50995	66845	72680	4730
plx (pollux)	1	1.13e5	90240	55960	51690	8080
plx (pollux)	2	41955	51020	37175	32990	3325
orb (oo18 RNA-binding protein)	1	3455	3438	3435	3590	485
GstS1 (Glutathione S transferase S1)	1	70125	1.14e5	1.48e5	2.29e5	10315
Spn43Ad (Serpin 43Ad)	1	1.91e5	1.80e5	2.45e5	2.42e5	15665
CG12241	1	1.19e5	94115	74560	79695	7870
Men (Malic enzyme)	1	1.57e5	1.57e5	1.95e5	1.98e5	13480
Men (Malic enzyme)	2	81545	88990	85235	67360	5488
not (non-stop)	1	1.04e5	89265	59435	63445	8570
Fum1 (Fumarase 1)	1	2.42e5	2.55e5	2.64e5	2.84e5	16415
Ubr1 (Ubr1 ubiquitin ligase)	1	76495	87110	90390	61420	8310
alpha-Cat (alpha Catenin)	1	1.16e5	1.02e5	63495	78025	8490

Single entries from the list:
D19B, control promoter light, run 1, well a = 2.25e5
Entry of plx (pollux) #1 in “induced reporter light, run 1, well a”: 1.13e5
Lip3 (Lipase 3), control promoter light, run 1, well b: 1.99e5

The results go on:
predicted target	reagent no.	induced reporter light, run 1, well a	induced reporter light, run 1, well b	control promoter light, run 1, well a	control promoter light, run 1, well b	uninduced reporter light, run 1, well a
Mrp5 (Multidrug resistance protein 5)	1	1.70e5	1.48e5	1.65e5	1.81e5	10695
Mrp5 (Multidrug resistance protein 5)	2	1.61e5	1.77e5	1.56e5	1.78e5	11995
Ir84a (Ionotropic receptor 84a)	1	1.08e5	1.31e5	93975	76550	5410
Polr3K + Tcs1	1	1.75e5	1.97e5	3.21e5	3.85e5	13570
Gdi (GDP dissociation inhibitor)	1	2.24e5	2.26e5	2.29e5	2.07e5	16300
CG13713	1	1.98e5	2.15e5	2.72e5	1.99e5	8735
CG32473	1	1.90e5	2.22e5	2.35e5	2.38e5	15870
CG32473	2	1.54e5	1.55e5	98145	1.07e5	10145
CG14205	1	1.10e5	1.20e5	1.26e5	1.16e5	13270
blot (bloated tubules)	1	2.00e5	2.27e5	2.19e5	2.61e5	21670
blot (bloated tubules)	2	99685	1.17e5	72275	69600	7535
drosha	1	1.18e5	1.14e5	1.11e5	98530	9970
Lcp9 (Larval cuticle protein 9)	1	1.79e5	1.90e5	1.97e5	1.77e5	10320
CG13841	1	1.44e5	1.29e5	1.62e5	1.41e5	8820
CG11970	1	1.34e5	1.16e5	1.35e5	99895	8820
CG9168	1	1.69e5	1.53e5	2.51e5	1.54e5	9260
RIC-3 (RIC3 acetylcholine receptor chaperone)	1	1.05e5	99575	80570	64295	5135
RIC-3 (RIC3 acetylcholine receptor chaperone)	2	67500	44530	49335	64875	3800
CG10560	1	1.45e5	1.39e5	2.24e5	1.94e5	13960
CG7202	1	1.26e5	1.11e5	1.30e5	1.02e5	4780
CG17999	1	1.79e5	1.67e5	1.83e5	1.93e5	14310
Ak6 (Adenylate kinase 6)	1	97690	92160	1.28e5	1.56e5	9910
Rab23	1	92030	96560	87710	96355	7185
Drep4 (DNA fragmentation factor-related protein 4)	1	1.44e5	1.56e5	1.94e5	1.98e5	13765
CG11192	1	47155	32975	40660	44120	5720
CG34347	1	65265	74720	1.02e5	1.08e5	6478
CG34347	2	45120	42410	54375	59455	9675
CG34347	3	44285	42400	34170	34815	3150
CG34347	4	5735	5180	9510	8965	2925
